# According to article PMC9867761:
# The chains behind the UniProt entries cited, without tags or fusion partners.
# UniProt Q03141: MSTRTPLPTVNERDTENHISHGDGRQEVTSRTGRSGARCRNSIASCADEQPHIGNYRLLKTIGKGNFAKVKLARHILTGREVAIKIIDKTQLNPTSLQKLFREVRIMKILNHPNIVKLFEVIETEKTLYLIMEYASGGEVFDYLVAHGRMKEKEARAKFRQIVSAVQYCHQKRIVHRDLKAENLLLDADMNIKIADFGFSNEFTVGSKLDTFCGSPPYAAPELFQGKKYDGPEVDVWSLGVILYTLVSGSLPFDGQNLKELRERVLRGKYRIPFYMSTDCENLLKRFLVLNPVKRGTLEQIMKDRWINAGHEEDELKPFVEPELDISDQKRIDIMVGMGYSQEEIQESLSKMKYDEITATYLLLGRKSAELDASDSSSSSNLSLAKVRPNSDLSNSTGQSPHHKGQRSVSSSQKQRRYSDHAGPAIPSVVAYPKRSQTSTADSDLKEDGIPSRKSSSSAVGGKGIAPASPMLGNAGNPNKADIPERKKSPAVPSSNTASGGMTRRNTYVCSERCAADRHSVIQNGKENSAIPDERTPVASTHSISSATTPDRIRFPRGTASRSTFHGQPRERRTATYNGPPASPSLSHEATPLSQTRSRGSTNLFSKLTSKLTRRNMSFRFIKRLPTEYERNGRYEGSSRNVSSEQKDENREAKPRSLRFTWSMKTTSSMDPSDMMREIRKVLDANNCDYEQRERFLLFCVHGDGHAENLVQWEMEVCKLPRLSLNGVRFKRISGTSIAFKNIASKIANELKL
# No constants are given. Whether binding was seen depends on the method and setting. In cells and extracts the contact can be indirect. Some binding calls cover weakened binding; strength is not graded here. For some of these results: Tags and fused reporters may be left off the sequences shown.
# T1: Wdr4 fused with a Flag tag (mouse) (UniProt Q9EP82)
# T1 sequence: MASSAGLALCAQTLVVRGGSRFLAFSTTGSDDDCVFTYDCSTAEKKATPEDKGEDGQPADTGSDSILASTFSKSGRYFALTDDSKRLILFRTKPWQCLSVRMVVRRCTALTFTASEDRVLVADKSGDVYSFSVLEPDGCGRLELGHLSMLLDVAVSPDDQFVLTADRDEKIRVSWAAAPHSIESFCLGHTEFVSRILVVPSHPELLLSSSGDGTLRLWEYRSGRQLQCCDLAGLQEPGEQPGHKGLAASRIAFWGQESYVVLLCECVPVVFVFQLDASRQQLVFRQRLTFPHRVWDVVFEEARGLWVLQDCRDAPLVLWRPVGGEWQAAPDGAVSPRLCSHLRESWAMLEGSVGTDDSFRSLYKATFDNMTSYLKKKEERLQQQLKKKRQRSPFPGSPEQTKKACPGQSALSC
# T2: endogenous Wdr4 (mouse (endogenous, cells not named)) (UniProt Q9EP82)
# T2 sequence: T1 sequence
# B1: Arhgap17 (protein, UniProt Q3UIA2-4 1-727)
# chain: MKKQFNRMKQLANQTVGRAEKTEVLSEDLLQIERRLDTVRSMCHHSHKRLIACFQGQHGTDAERRHKKLPLTALAQNMQEASAQLEESLLGKMLETCGDAENQLALELSQHEVFVEKEIMDPLYGIAEVEIPNIQKQRKQLARLVLDWDSVRARWNQAHKSSGTNFQGLPSKIDTLKEEMDEAGNKVEQCKDQLAADMYNFMAKEGEYGKFFVTLLEAQADYHRKALAVLEKALPEMRAHQDKWAEKPAFGTPLEEHLKRSGREIALPIEACVMLLLETGMKEEGLFRIGAGASKLKKLKAALDCSTSHLDEFYSDPHAVAGALKSYLRELPEPLMTFSLYEEWTQVASVQDQDKKLQYLWTTCQKLPPQNFVNFRYLIKFLAKLAQTSDVNKMTPSNIAIVLGPNLLWAKQEGTLAEIAAATSVHVVAVIEPIIQHADWFFPGEVEFNVSEAFVPLATPNSNHSSHTGNDSDSGTLERKRPASMAVMEGDLVKKESPPKPKDSVSAAVPAAGRNSNQMTTVPNQAQTGGNSHQLSVSTPHSAAGPSPHTLRRAVKKPAPAPPKPGNLPPGHPGGQSSPGTGTSPKPSARSPSPPQQQQQQQQQQQQQQQQQTPGMRRCSSSLPPIQAPSHPPPQPPTQPRLGEQGPEPGPTPPQTPTPPSTPPLAKQNPSQSETTQLHGTLPRPRPVPKPRNRPSVPPPPHPPGTHTVDGGLTSSVPTASRIVTDV
# B2: Stag2 (protein, UniProt O35638 1-1231)
# chain: MIAAPEIPTDFNLLQESETHFSSDTDFEDIEGKNQKQGKGKTCKKGKKGPAEKGKSGNGGGKPPSGSNRMNGHHQQNGVENMMLFEVVKMGKSAMQSVVDDWIESYKHDRDIALLDLINFFIQCSGCKGVVTAEMFRHMQNSEIIRKMTEEFDEDSGDYPLTMAGPQWKKFKSSFCEFIGVLVRQCQYSIIYDEYMMDTVISLLTGLSDSQVRAFRHTSTLAAMKLMTALVNVALNLSINMDNTQRQYEAERNKMIGKRANERLELLLQKRKELQENQDEIENMMNAIFKGVFVHRYRDAIAEIRAICIEEIGIWMKMYSDAFLNDSYLKYVGWTMHDKQGEVRLKCLTALQGLYYNKELNSKLELFTSRFKDRIVSMTLDKEYDVAVQAIKLLTLVLQSSEEVLTAEDCENVYHLVYSAHRPVAVAAGEFLYKKLFSRRDPEEDGLMKRRGRQGPNANLVKTLVFFFLESELHEHAAYLVDSMWDCATELLKDWECMNSLLLEEPLSGEEALTDRQESALIEIMLCTIRQAAECHPPVGRGTGKRVLTAKEKKTQLDDRTRITELFAVALPQLLAKYSVDAEKVTNLLQLPQYFDLEIYTTGRLEKHLDALLRQIRNIVEKHTDTDVLEACSKTYHALCNEEFTIFNRVDISRSQLIDELADKFNRLLEDFLQEGEEPDEDDAYQVLSTLKRITAFHNAHDLSKWDLFACNYKLLKTGIENGDMPEQIVIHALQCAHYVILWQLAKITESTSTKEDLLRLKKQMRVFCQICQHYLTNVNTTVKEQAFTILCDILMIFSHQIMSGGRDMLEPLVYTPDSSLQSELLSFILDHVFIEQDDDSNSADGQQEDEASKIEALHKRRNLLAAFCKLIVYTVVEMNTAADIFKQYMKYYNDYGDIIKETMSKTRQIDKIQCAKTLILSLQQLFNEMIQENGYNFDRSSSTFSGIKELARRFALTFGLDQLKTREAIAMLHKDGIEFAFKEPNPQGESHPPLNLAFLDILSEFSSKLLRQDKRTVYVYLEKFMTFQMSLRREDVWLPLMSYRNSLLAGGDDDTMSVISGMSSRGSTVRSKKSKPSTGKRKVVEGMQLALPEESSSSDSMWLSREQTLHTPVMMQTPQLTSTIMREPKRLRPEDSFMSVYPMQAEHHQTPLDYNRRGTSLMEDDEEPIVEDVMMSSEGRIEDLNEGMDFDTMDIDLPPSKNRRERTELKPDFFDPASIMDESVLGVSMF
# Columns and labels:
# [1] = biological target: T1, Wdr4 fused with a Flag tag (mouse); assay: co-IP; N2a cells expressing Flag-Wdr4; RIPA lysate incubated with anti-Flag M2 beads at 4 °C for 3-4 h; bound proteins by western blot
# [2] = biological target: T2, endogenous Wdr4 (mouse (endogenous, cells not named)); assay: co-IP; endogenous proteins; RIPA lysate incubated with anti-Wdr4 antibody conjugated with Protein A-Sepharose overnight; Arhgap17 detected by western blot (sc-514438)
molecule,measurement,setting,value
Mark3 (from UniProt Q03141 1-753),binding,[1],no binding
B1,binding,[1],binds
same,binding,[2],binds
B2,binding,[1],no binding
